These are yes or no findings as the source states them, for the method shown. Some binding calls cover weakened binding; strength is not graded here. Sequences can lack the tags named with a protein. Blank lines part the entries; values can stand above or below the molecule they belong to.
Target: T1, TetR–FLAG–MAU2 (UniProt Q9Y6X3)
T1 sequence: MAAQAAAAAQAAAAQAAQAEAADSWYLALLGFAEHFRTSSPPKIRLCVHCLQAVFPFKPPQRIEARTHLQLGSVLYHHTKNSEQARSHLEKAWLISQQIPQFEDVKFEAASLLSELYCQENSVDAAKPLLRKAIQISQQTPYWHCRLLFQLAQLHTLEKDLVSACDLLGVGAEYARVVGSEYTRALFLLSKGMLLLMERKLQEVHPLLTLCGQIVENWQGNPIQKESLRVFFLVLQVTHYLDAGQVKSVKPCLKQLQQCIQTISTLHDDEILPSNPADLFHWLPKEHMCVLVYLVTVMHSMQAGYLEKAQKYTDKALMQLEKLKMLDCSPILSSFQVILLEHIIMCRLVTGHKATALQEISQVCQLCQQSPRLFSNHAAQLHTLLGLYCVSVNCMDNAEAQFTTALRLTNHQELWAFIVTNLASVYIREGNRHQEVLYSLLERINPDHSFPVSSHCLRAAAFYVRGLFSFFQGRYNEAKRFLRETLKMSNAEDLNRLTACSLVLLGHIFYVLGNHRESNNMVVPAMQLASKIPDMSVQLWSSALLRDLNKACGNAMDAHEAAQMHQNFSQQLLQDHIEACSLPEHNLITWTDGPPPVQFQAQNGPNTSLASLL
Assay: ChIP (qPCR and sequencing) of factors co-recruited to TetO arrays by a tethered TetR fusion; HAP1 cells with 27 genomic TetO platforms stably expressing TetR–FLAG–MAU2 or TetR–FLAG–mCherry; 1% formaldehyde cross-linking for 10 min; ChIP with an antibody to each factor (anti-V5 for V5–MAU2); TetO DNA read by qPCR or sequencing; enrichment relative to Cherry cells; recruitment was lost after 1 h doxycycline; NIPBL recruitment was also tested after 2 h RAD21 depletion

The chains behind the UniProt entries cited, without tags or fusion partners.
UniProt Q6KC79: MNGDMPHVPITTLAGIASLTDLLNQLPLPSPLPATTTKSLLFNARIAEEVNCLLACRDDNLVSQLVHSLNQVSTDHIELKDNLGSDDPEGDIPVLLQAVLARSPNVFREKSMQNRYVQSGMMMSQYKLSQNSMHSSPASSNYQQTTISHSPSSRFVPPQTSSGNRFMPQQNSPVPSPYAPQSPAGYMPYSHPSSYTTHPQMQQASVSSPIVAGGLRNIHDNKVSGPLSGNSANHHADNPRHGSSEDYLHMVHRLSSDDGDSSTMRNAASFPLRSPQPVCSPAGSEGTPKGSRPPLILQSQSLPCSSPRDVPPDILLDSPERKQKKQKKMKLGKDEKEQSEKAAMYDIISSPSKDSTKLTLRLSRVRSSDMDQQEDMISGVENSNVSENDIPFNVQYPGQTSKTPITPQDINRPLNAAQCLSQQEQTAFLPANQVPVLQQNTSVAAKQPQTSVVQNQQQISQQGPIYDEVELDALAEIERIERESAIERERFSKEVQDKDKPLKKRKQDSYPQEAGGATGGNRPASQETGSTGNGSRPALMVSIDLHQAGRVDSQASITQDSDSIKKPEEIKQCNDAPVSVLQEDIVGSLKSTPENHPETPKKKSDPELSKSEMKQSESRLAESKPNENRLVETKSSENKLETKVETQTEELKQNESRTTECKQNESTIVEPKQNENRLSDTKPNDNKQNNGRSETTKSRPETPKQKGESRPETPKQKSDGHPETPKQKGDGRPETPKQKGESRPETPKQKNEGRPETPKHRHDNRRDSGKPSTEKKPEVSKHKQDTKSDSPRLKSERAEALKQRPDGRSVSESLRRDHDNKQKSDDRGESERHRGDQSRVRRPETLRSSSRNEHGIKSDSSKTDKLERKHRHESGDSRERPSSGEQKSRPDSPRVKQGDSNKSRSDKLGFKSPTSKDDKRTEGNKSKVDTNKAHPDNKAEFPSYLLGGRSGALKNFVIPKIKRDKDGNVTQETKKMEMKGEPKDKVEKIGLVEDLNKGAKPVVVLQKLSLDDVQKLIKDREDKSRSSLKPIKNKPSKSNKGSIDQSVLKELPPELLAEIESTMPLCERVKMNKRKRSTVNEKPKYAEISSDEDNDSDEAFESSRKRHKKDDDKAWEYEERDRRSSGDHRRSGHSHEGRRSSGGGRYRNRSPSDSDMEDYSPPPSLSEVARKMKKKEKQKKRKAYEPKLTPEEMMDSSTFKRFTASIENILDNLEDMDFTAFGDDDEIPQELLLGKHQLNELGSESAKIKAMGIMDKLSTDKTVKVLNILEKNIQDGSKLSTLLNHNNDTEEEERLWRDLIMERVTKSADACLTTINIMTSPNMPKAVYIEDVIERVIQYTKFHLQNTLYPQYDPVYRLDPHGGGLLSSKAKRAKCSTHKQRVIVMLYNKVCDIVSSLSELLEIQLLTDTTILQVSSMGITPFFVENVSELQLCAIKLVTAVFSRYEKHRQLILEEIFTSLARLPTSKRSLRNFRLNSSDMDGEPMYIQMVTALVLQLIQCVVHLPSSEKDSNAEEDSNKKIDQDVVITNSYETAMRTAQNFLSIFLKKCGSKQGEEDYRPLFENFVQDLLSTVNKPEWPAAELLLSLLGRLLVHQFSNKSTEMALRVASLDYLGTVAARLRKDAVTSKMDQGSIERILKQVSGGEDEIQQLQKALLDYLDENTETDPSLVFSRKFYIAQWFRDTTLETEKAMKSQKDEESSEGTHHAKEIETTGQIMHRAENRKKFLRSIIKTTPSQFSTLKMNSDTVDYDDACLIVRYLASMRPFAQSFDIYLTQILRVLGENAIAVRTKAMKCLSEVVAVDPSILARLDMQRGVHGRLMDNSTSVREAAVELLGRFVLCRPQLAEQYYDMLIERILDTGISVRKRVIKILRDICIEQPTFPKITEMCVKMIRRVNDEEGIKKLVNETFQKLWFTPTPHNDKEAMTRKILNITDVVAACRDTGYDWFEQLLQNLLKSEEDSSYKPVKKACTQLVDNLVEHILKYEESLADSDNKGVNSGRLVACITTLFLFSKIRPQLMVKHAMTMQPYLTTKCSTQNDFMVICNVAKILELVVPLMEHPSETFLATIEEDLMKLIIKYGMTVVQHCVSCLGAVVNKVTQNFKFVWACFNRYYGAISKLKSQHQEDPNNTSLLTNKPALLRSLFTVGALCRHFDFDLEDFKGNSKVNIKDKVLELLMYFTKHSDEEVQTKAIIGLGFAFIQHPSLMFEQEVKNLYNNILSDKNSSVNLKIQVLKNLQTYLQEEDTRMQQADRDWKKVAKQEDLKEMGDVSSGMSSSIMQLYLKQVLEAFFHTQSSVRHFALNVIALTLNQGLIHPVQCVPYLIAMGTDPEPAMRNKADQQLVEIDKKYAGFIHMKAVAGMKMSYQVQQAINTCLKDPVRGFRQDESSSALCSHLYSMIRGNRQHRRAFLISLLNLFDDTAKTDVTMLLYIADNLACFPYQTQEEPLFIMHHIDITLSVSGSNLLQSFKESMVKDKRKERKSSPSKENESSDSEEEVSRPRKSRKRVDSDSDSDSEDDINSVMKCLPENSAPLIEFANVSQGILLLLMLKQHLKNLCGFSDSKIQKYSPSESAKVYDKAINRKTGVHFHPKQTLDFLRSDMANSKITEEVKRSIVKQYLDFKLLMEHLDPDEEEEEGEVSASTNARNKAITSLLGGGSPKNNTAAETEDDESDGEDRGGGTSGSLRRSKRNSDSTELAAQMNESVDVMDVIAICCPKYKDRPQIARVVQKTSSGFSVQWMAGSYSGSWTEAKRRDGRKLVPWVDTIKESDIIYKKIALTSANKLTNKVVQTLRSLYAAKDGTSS

binding: binds
Molecule: NIPBL (from UniProt Q6KC79 1-2804)

binding: binds
B1: STAG2 (protein, UniProt Q8N3U4 1-1231)
chain: MIAAPEIPTDFNLLQESETHFSSDTDFEDIEGKNQKQGKGKTCKKGKKGPAEKGKGGNGGGKPPSGPNRMNGHHQQNGVENMMLFEVVKMGKSAMQSVVDDWIESYKHDRDIALLDLINFFIQCSGCKGVVTAEMFRHMQNSEIIRKMTEEFDEDSGDYPLTMAGPQWKKFKSSFCEFIGVLVRQCQYSIIYDEYMMDTVISLLTGLSDSQVRAFRHTSTLAAMKLMTALVNVALNLSINMDNTQRQYEAERNKMIGKRANERLELLLQKRKELQENQDEIENMMNAIFKGVFVHRYRDAIAEIRAICIEEIGIWMKMYSDAFLNDSYLKYVGWTMHDKQGEVRLKCLTALQGLYYNKELNSKLELFTSRFKDRIVSMTLDKEYDVAVQAIKLLTLVLQSSEEVLTAEDCENVYHLVYSAHRPVAVAAGEFLYKKLFSRRDPEEDGMMKRRGRQGPNANLVKTLVFFFLESELHEHAAYLVDSMWDCATELLKDWECMNSLLLEEPLSGEEALTDRQESALIEIMLCTIRQAAECHPPVGRGTGKRVLTAKEKKTQLDDRTKITELFAVALPQLLAKYSVDAEKVTNLLQLPQYFDLEIYTTGRLEKHLDALLRQIRNIVEKHTDTDVLEACSKTYHALCNEEFTIFNRVDISRSQLIDELADKFNRLLEDFLQEGEEPDEDDAYQVLSTLKRITAFHNAHDLSKWDLFACNYKLLKTGIENGDMPEQIVIHALQCTHYVILWQLAKITESSSTKEDLLRLKKQMRVFCQICQHYLTNVNTTVKEQAFTILCDILMIFSHQIMSGGRDMLEPLVYTPDSSLQSELLSFILDHVFIEQDDDNNSADGQQEDEASKIEALHKRRNLLAAFCKLIVYTVVEMNTAADIFKQYMKYYNDYGDIIKETMSKTRQIDKIQCAKTLILSLQQLFNEMIQENGYNFDRSSSTFSGIKELARRFALTFGLDQLKTREAIAMLHKDGIEFAFKEPNPQGESHPPLNLAFLDILSEFSSKLLRQDKRTVYVYLEKFMTFQMSLRREDVWLPLMSYRNSLLAGGDDDTMSVISGISSRGSTVRSKKSKPSTGKRKVVEGMQLSLTEESSSSDSMWLSREQTLHTPVMMQTPQLTSTIMREPKRLRPEDSFMSVYPMQTEHHQTPLDYNRRGTSLMEDDEEPIVEDVMMSSEGRIEDLNEGMDFDTMDIDLPPSKNRRERTELKPDFFDPASIMDESVLGVSMF

binding: binds
B2: RAD21 (protein, UniProt O60216 1-631)
chain: MFYAHFVLSKRGPLAKIWLAAHWDKKLTKAHVFECNLESSVESIISPKVKMALRTSGHLLLGVVRIYHRKAKYLLADCNEAFIKIKMAFRPGVVDLPEENREAAYNAITLPEEFHDFDQPLPDLDDIDVAQQFSLNQSRVEEITMREEVGNISILQENDFGDFGMDDREIMREGSAFEDDDMLVSTTTSNLLLESEQSTSNLNEKINHLEYEDQYKDDNFGEGNDGGILDDKLISNNDGGIFDDPPALSEAGVMLPEQPAHDDMDEDDNVSMGGPDSPDSVDPVEPMPTMTDQTTLVPNEEEAFALEPIDITVKETKAKRKRKLIVDSVKELDSKTIRAQLSDYSDIVTTLDLAPPTKKLMMWKETGGVEKLFSLPAQPLWNNRLLKLFTRCLTPLVPEDLRKRRKGGEADNLDEFLKEFENPEVPREDQQQQHQQRDVIDEPIIEEPSRLQESVMEASRTNIDESAMPPPPPQGVKRKAGQIDPEPVMPPQQVEQMEIPPVELPPEEPPNICQLIPELELLPEKEKEKEKEKEDDEEEEDEDASGGDQDQEERRWNKRTQQMLHGLQRALAKTGAESISLLELCRNTNRKQAAAKFYSFLVLKKQQAIELTQEEPYSDIIATPGPRFHII

From PMC12597828
